Assay results from patent US20090246519A1 (priority 2008, published 2009).
At least one compound was matched to its structure with a doubt left.

System: Strains in all clusters
Assay type: cell-based

O=[Se](O)O [selenite, sodium selenite]
Resistance of strains to oxyanion: resistant
